This note sets out measurements from article PMC7251106.

Protein sequences, listed by entry. Tags and fused reporters are not part of them.
UniProt P48681: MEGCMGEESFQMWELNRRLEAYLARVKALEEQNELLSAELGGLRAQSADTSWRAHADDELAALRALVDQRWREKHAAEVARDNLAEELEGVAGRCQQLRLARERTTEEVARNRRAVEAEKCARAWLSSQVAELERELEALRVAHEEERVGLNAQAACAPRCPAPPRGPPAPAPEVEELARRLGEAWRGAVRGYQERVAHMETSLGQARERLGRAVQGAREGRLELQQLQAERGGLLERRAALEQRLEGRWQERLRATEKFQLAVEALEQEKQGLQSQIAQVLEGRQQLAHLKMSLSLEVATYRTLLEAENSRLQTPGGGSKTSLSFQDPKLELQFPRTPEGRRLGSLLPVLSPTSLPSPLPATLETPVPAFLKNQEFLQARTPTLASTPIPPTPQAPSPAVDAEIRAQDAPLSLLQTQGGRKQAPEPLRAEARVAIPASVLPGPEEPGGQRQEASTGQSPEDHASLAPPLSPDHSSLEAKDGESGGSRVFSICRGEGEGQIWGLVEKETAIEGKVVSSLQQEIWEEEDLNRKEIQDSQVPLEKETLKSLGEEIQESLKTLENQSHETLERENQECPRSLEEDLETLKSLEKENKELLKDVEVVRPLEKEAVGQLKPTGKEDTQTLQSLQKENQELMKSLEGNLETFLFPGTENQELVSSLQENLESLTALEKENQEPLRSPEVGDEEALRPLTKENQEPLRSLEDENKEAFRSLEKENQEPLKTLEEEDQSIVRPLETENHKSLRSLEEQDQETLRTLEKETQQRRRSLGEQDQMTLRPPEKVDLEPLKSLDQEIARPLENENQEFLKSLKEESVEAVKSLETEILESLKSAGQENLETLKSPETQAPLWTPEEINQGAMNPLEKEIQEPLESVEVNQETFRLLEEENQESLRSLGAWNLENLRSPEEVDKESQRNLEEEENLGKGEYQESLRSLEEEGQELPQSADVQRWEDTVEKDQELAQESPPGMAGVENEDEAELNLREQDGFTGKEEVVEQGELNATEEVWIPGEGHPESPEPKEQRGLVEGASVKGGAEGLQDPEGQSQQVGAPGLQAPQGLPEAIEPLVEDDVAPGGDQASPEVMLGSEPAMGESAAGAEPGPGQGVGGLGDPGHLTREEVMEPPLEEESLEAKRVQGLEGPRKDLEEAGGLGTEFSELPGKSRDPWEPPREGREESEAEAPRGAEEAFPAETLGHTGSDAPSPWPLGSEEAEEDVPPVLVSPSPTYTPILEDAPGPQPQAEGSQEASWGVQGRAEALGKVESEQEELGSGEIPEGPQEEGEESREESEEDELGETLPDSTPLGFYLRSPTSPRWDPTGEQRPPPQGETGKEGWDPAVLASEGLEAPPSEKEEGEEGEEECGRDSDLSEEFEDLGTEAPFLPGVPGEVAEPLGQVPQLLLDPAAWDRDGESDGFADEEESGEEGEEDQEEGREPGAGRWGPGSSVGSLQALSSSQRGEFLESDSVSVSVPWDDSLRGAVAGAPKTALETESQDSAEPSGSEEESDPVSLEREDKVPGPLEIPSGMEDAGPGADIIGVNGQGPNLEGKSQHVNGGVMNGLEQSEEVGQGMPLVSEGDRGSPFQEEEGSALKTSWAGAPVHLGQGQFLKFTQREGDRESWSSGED

Results are given in words; binding and its absence hold for the method and conditions named. In cells and extracts the contact can be indirect. Some entries that bind do so weakly or less than the wild type.

Assay [1] has as its target T1, Vascular endothelial (VE)-cadherin (human (endogenous in HUVEC)) (UniProt P33151).
T1 sequence: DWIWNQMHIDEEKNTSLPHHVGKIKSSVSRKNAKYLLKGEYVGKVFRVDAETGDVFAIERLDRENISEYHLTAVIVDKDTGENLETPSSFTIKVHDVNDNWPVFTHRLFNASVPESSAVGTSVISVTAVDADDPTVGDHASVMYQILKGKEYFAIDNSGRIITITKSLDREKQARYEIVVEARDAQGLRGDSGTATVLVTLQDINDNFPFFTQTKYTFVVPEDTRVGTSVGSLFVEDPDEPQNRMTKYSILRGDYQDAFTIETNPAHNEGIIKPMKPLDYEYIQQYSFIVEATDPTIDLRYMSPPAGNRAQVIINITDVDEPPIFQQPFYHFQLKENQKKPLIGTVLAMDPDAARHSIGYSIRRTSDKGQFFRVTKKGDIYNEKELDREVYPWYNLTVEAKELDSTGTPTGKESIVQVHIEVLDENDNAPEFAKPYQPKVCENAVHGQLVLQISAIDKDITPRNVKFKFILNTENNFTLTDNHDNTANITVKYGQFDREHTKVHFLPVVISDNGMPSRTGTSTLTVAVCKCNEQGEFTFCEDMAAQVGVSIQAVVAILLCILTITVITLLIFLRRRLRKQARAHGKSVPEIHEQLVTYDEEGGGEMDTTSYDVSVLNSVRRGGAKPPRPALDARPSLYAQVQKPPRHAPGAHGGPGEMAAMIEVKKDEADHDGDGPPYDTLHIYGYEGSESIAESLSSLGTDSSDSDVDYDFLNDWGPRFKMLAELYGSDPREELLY
As to the kind of experiment: proximity ligation; Duolink PLA on fixed, permeabilised HUVECs treated with ctr or anti-LASSIE GapmeR; PLA events counted per image.

The target of assay [2] is nestin (human (endogenous in HUVEC)) (UniProt P48681). The assay can be described thus: co-IP; HUVEC lysate, anti-nestin antibody, VE-cadherin co-precipitated; with or without 100 µg/mL RNase A in the lysis buffer and the IP reaction.

For the molecule nestin (from UniProt P48681 1-1621), the binding result in assay [1] is recorded as “binds”.

B1: Vascular endothelial (VE)-cadherin (protein, UniProt P33151 48-784)
chain: DWIWNQMHIDEEKNTSLPHHVGKIKSSVSRKNAKYLLKGEYVGKVFRVDAETGDVFAIERLDRENISEYHLTAVIVDKDTGENLETPSSFTIKVHDVNDNWPVFTHRLFNASVPESSAVGTSVISVTAVDADDPTVGDHASVMYQILKGKEYFAIDNSGRIITITKSLDREKQARYEIVVEARDAQGLRGDSGTATVLVTLQDINDNFPFFTQTKYTFVVPEDTRVGTSVGSLFVEDPDEPQNRMTKYSILRGDYQDAFTIETNPAHNEGIIKPMKPLDYEYIQQYSFIVEATDPTIDLRYMSPPAGNRAQVIINITDVDEPPIFQQPFYHFQLKENQKKPLIGTVLAMDPDAARHSIGYSIRRTSDKGQFFRVTKKGDIYNEKELDREVYPWYNLTVEAKELDSTGTPTGKESIVQVHIEVLDENDNAPEFAKPYQPKVCENAVHGQLVLQISAIDKDITPRNVKFKFILNTENNFTLTDNHDNTANITVKYGQFDREHTKVHFLPVVISDNGMPSRTGTSTLTVAVCKCNEQGEFTFCEDMAAQVGVSIQAVVAILLCILTITVITLLIFLRRRLRKQARAHGKSVPEIHEQLVTYDEEGGGEMDTTSYDVSVLNSVRRGGAKPPRPALDARPSLYAQVQKPPRHAPGAHGGPGEMAAMIEVKKDEADHDGDGPPYDTLHIYGYEGSESIAESLSSLGTDSSDSDVDYDFLNDWGPRFKMLAELYGSDPREELLY
In the case of B1, the binding entry in assay [2] was “binds”.
